Test results reported in publication PMC1479839 (BMC Biology, 2006).
No constants are given. Whether binding was seen depends on the method and setting.

Sequences of proteins named here, by UniProt entry; tags and fusion partners are left off. Residues count along the entry.
UniProt Q9HBE5, residues 20-232: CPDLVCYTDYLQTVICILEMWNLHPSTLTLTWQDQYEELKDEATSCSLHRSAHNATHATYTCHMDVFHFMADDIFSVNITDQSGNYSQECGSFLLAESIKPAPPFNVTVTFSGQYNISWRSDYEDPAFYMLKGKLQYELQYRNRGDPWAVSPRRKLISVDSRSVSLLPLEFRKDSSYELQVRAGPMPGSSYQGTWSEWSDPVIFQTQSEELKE

Target: receptor ectodomain of IL-21R (UniProt Q9HBE5)
Experiment: SPR; BIAcore; direct binding of IL-4, T13D and F82D to the receptor subunits IL-13Rα1, γc and IL-21R alone; both purified

binding | Molecule
no binding | human interleukin 4 (wild type) (from UniProt P05112 25-153) (ligand)
no binding | IL-4 variant F82D (ligand, human, UniProt P05112 25-153, looked up, interleukin 4, human; also called IL4-F82D; IL-4F82D) HKCDITLQEIIKTLNSLTEQKTLCTELTVTDIFAASKNTTEKETFCRAATVLRQFYSHHEKDTRCLGATAQQFHRHKQLIRDLKRLDRNLWGLAGLNSCPVKEANQSTLENFLERLKTIMREKYSKCSS
no binding | IL-4 variant T13D (ligand, human, UniProt P05112 25-153, looked up, interleukin 4, human; also called IL4-T13D; IL-4T13D) HKCDITLQEIIKDLNSLTEQKTLCTELTVTDIFAASKNTTEKETFCRAATVLRQFYSHHEKDTRCLGATAQQFHRHKQLIRFLKRLDRNLWGLAGLNSCPVKEANQSTLENFLERLKTIMREKYSKCSS
